PubChem BioAssay AID1224830 – NIAID, 2016
Shown is a random part of about 18,000 reagents. In the full data, about 2,900 (16%) were called active. 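Calls are made per well; low scores hint the gene aids the LPS response, high scores that it dampens it.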 Repeated entries: four replicate wells of each siRNA pool.

Screen: 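Regulators of TLR4 signalling towards TNF-alpha in macrophage-like cells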 (primary screen)
System: human THP-1 monocytic leukaemia cells, TNF dual-luciferase reporter clone, PMA-differentiated to macrophage-like cells
Reagents: siRNA pool against human genes, 50 nM
Timing: LPS for 4 h, given about 3 days after siRNA transfection
Conditions: bacterial LPS (TLR4 ligand), 10 ng/ml
Detection: 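Ratio of firefly to renilla light, scaled to the plate median and expressed as a robust z-score per replicate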
Scale: TNF reporter robust z-score: higher = stronger TNF reporter response to LPS
Rule for the call: 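a well is active when its z-score exceeds 2.8 or falls below -1.5; control wells carry no call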

The opening 5 records as a preview:
gene symbol	TNF reporter robust z-score	Call
GEMIN7	-0.59	inactive
GEMIN7	-0.33	inactive
GEMIN7	-0.95	inactive
GEMIN7	-0.6	inactive
MT3	0.36	inactive

Results, repeating the preview:
gene symbol	TNF reporter robust z-score	Call
GEMIN7	-0.59	inactive
GEMIN7	-0.33	inactive
GEMIN7	-0.95	inactive
GEMIN7	-0.6	inactive
MT3	0.36	inactive
MT3	-0.32	inactive
MT3	-0.87	inactive
MT3	-0.62	inactive
TOGARAM2	0.87	inactive
TOGARAM2	1.1	inactive
TOGARAM2	2.33	inactive
TOGARAM2	2.05	inactive
DUT	2.05	inactive
DUT	2.03	inactive
DUT	1.28	inactive
DUT	1.4	inactive
CFAP157	-0.08	inactive
CFAP157	-0.63	inactive
CFAP157	-0.66	inactive
CFAP157	-0.32	inactive
DOCK4	-0.77	inactive
DOCK4	0.53	inactive
DOCK4	-1.14	inactive
DOCK4	0.01	inactive
CHLSN	1.56	inactive
CHLSN	0.95	inactive
CHLSN	1.59	inactive
CHLSN	0.7	inactive
COPZ2	2.07	inactive
COPZ2	0.25	inactive
COPZ2	0.52	inactive
COPZ2	0.56	inactive
RBBP5	-0.98	inactive
RBBP5	0	inactive
RBBP5	-0.81	inactive
RBBP5	-0.01	inactive
CAPN3	-1.46	inactive
CAPN3	-1.16	inactive
CAPN3	-1.45	inactive
CAPN3	-1.21	inactive
ABHD4	1.25	inactive
ABHD4	0.65	inactive
ABHD4	-0.83	inactive
ABHD4	0.62	inactive
SLC12A2	-0.8	inactive
SLC12A2	-0.58	inactive
SLC12A2	-0.61	inactive
SLC12A2	-0.11	inactive
ROPN1L	-0.28	inactive
ROPN1L	-0.34	inactive
ROPN1L	-0.51	inactive
ROPN1L	-0.37	inactive
RIMS2	0.3	inactive
RIMS2	1.55	inactive
RIMS2	0.36	inactive
RIMS2	1.9	inactive
RAP2C	-0.12	inactive
RAP2C	-0.69	inactive
RAP2C	-1.25	inactive
RAP2C	-0.74	inactive
TRIP11	0.18	inactive
TRIP11	1.41	inactive
TRIP11	2.06	inactive
TRIP11	1.86	inactive
GABRR3	0.58	inactive
GABRR3	0.17	inactive
GABRR3	-0.23	inactive
GABRR3	0.27	inactive
TRIM73	-0.55	inactive
TRIM73	1.29	inactive
TRIM73	-0.78	inactive
TRIM73	1.58	inactive
ETV5	-0.52	inactive
ETV5	-0.67	inactive
ETV5	0.33	inactive
ETV5	0.93	inactive
